{"source": "PubChem BioAssay AID1347075", "about": "(National Center for Advancing Translational Sciences (NCATS), 2019)", "note": "In all, about 400,000 compounds went through this assay and about 5,500 (1.4%) were called active. Inconclusive means that the source gave no clear call. Such entries were picked first, then a sample of the others. The call rests on the fitted dose curve; in most records, active means well fitted cell-killing curve with a large enough effect; inconclusive means small, poorly fitted or top-dose-only effect, or effect the other way; inactive means flat fitted curve, though single readings scatter. Potencies of inconclusive entries are doubtful fits and often do not repeat. On the % scale 0 is the no-effect control and ±100 the full control effect; potency means the concentration at half of the fitted maximal effect.", "data": [{"test": "qHTS assay for MDR1-selective chemotherapeutics: Primary screen using the parental adenocarcinoma cell KB-3-1; further: nearly all actives have a fitted effect of over 60% in size", "conditions": "KB-3-1 viability, CellTiter-Glo ATP luminescence, 72 h; activity change, negative = cytotoxic: at 46.1 µM (top of the series)", "summary_of_the_method": "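72 h, 37 °C compound treatment of KB-3-1 parental cells; CellTiter-Glo added, 10 min, luminescence read. Data corrected against DMSO-only plates and normalized before curve fitting.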", "values": [{"smiles": "CCCN(CCC)c1nc(NC2CCN(C(=O)OCC)CC2)nc(OC)n1", "Potency": "inconclusive: 20.6 µM [cytotoxic, single point]"}, {"smiles": "CCN(CC)c1ccc(N=C2C=CC(=O)C=C2NC(C)=O)cc1", "Potency": "inconclusive: 29.1 µM [cytotoxic, single point]"}, {"smiles": "Cc1cc(C)c2ccc(N)nc2c1O", "Potency": "inconclusive: 4.11 µM [cytotoxic, partial curve, poor fit]"}, {"smiles": "CCOc1cc(C)c(Cl)cc1S(=O)(=O)NCc1ccc2c(c1)OCO2", "Potency": "inconclusive: 25.9 µM [cytotoxic, single point]"}, {"smiles": "O=C(Nc1ccccc1N1CCOCC1)c1ccc([N+](=O)[O-])s1", "Potency": "inconclusive: 16.4 µM [cytotoxic, partial curve, poor fit]"}, {"smiles": "O=C1N/C(=N/N=C/c2ccccc2O)SC1Cc1ccc(F)cc1", "note": "(stereo not drawn)", "Potency": "inconclusive: 18.4 µM [cytotoxic, single point]"}, {"smiles": "Cc1ccc(C)[n+](CC(=O)N2CCCCC2)c1", "Potency": "inconclusive: 18.4 µM [rising, single point]"}, {"smiles": "COc1ccc(CNC(=O)c2cnn(-c3ccc(OC)cc3)c2C2CCN(C(=O)OC(C)(C)C)CC2)cc1", "activity change, negative = cytotoxic": "inactive: -8.45%"}, {"smiles": "COc1cccc(C(=O)COc2cccc(NC(=O)c3cccc([N+](=O)[O-])c3)c2)c1", "Potency": "inconclusive: 29.1 µM [cytotoxic, single point]"}, {"smiles": "CCC(=O)Nc1ccc(C=C(C(C)=O)C(C)=O)cc1", "Potency": "inconclusive: 29.1 µM [cytotoxic, single point]"}, {"smiles": "O=C(CSc1nc2ccccc2c(=O)n1Cc1ccc(C(=O)NC2CC2)cc1)NCc1ccco1", "Potency": "inconclusive: 35.5 µM [cytotoxic, single point]"}, {"smiles": "O=C(CN(c1ccccc1)S(=O)(=O)c1ccccc1[N+](=O)[O-])N1CCCC1", "Potency": "inconclusive: 0.326 µM [cytotoxic, partial curve, poor fit]"}, {"smiles": "CC(C)(C)OC(=O)N1CCN(c2ccc(CNC(=O)c3ccc(Cl)cc3)cc2)CC1", "Potency": "inconclusive: 15.8 µM [cytotoxic, single point]"}, {"smiles": "CCOc1cc(C(=S)N2CCCCC2)ccc1OS(=O)(=O)c1ccc(Br)cc1", "Potency": "inconclusive: 16.4 µM [cytotoxic, partial curve]"}, {"smiles": "O=C(CSc1nnc(-c2ccccc2Br)o1)Nc1cccc2ccccc12", "activity change, negative = cytotoxic": "inactive: 6.03%"}, {"smiles": "O=C(CN1CCN(S(=O)(=O)c2ccc3ccccc3c2)CC1)Nc1ccc2c(c1)CCC2", "activity change, negative = cytotoxic": "inactive: 1.75%"}, {"smiles": "COc1ccc(C)cc1-n1nnnc1SCC(=O)Nc1cc(C)on1", "activity change, negative = cytotoxic": "inactive: 16.8%"}, {"smiles": "Cc1cc(C)c(O)c(CN(C)Cc2cc(Cl)cc(Cl)c2O)c1", "Potency": "inconclusive: 29.1 µM [cytotoxic, single point]"}]}]}
